According to publication PMC2667185:
No constants are given. Whether binding was seen depends on the method and setting. Some entries that bind do so weakly or less than the wild type. One block for each binder: values may come before it.

Key:
[1] = target: T1, Mus musculus RAD51C full length (Mus musculus) (UniProt Q924H5); experiment: two-hybrid; GAL4 activating domain (pGADT7) and DNA binding domain (pGBKT7) fusions, AH109 x Y187 diploids; growth on -Ade/-Leu/-His/-Trp medium, 10 days at 30°C; both orientations of the GAL4 fusion
T1 sequence: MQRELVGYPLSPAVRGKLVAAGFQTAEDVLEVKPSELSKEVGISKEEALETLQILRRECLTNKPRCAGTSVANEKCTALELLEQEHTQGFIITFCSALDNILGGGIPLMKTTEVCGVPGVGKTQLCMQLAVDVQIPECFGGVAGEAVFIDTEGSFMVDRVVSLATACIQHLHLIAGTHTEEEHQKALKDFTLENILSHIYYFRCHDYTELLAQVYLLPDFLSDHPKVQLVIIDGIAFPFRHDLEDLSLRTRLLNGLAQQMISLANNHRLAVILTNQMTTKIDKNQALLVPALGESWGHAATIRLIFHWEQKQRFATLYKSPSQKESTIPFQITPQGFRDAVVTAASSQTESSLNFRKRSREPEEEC

[2] = target: T2, Mus musculus XRCC2 full length (Mus musculus) (UniProt Q9CX47); experiment: as above
T2 sequence: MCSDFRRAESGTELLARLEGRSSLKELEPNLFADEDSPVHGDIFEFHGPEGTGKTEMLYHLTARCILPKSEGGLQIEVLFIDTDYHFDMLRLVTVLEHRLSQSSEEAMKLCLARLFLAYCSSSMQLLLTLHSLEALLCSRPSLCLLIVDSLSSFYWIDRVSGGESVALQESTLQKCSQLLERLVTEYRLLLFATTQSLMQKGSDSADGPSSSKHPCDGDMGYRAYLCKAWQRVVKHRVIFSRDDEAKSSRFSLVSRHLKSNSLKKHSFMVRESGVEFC

[3] = target: T1, Mus musculus RAD51C full length (Mus musculus); experiment: two-hybrid; same mated yeast; colony lift assay, qualitative β-galactosidase activity
[4] = target: T2, Mus musculus XRCC2 full length (Mus musculus); experiment: as above
[5] = target: T1, Mus musculus RAD51C full length (Mus musculus); experiment: two-hybrid; same mated yeast; liquid β-galactosidase assay with ONPG as substrate, in triplicate, constructs in both the GAL4 activating and DNA binding domains
[6] = target: T2, Mus musculus XRCC2 full length (Mus musculus); experiment: as above
[7] = target: T2, Mus musculus XRCC2 full length (Mus musculus); experiment: two-hybrid; RAD51DΔ3 and RAD51D+int3 directly compared with the original RAD51D deletion constructs (4–77, 77–329) against RAD51C and XRCC2 (Figure 3A-B); read-out not stated

- binding [1]: binds
- binding [2]: binds
- binding [3]: binds
- binding [4]: binds
- binding [5]: binds
- binding [6]: binds
B1: Mus musculus RAD51DΔ7b (deleted for residues 219 through 223) (protein, UniProt O55230)
chain: MGMLRAGLCPGLTEETVQLLRGRKIKTVADLAAADLEEVAQKCGLSYKALVALRRVLLAQFSAFPLNGADLYEELKTSTAILSTGIGSLDKLLDAGLYTGEVTEIVGGPGSGKTQVCLCVAANVAHSLQQNVLYVDSNGGMTASRLLQLLQARTQDEEKQASALQRIQVVRSFDIFRMLDMLQDLRGTIAQQEATSSGAVKVVIVDSVTAVVAPLLGGLALMMQLARELKILARDLGVAVVVTNHLTRDWDGRRFKPALGRSWSFVPSTRILLDVTEGAGTLGSSQRTVCLTKSPRQPTGLQEMIDIGTLGTEEQSPELPGKQT

- binding [7]: binds
B2: RAD51D (4–77) deletion construct (domain or fragment, UniProt O75771 4-77)
chain: LRVGLCPGLTEEMIQLLRSHRIKTVVDLVSADLEEVAQKCGLSYKALVALRRVLLAQFSAFPVNGADLYEELKT

- binding [1]: binds
- binding [2]: binds
- binding [3]: binds
- binding [4]: binds
- binding [5]: binds
- binding [6]: binds
B3: Mus musculus RAD51D full length (protein, UniProt O55230 1-329)
chain: MGMLRAGLCPGLTEETVQLLRGRKIKTVADLAAADLEEVAQKCGLSYKALVALRRVLLAQFSAFPLNGADLYEELKTSTAILSTGIGSLDKLLDAGLYTGEVTEIVGGPGSGKTQVCLCVAANVAHSLQQNVLYVDSNGGMTASRLLQLLQARTQDEEKQASALQRIQVVRSFDIFRMLDMLQDLRGTIAQQEATSSGAVKVVIVDSVTAVVAPLLGGQQREGLALMMQLARELKILARDLGVAVVVTNHLTRDWDGRRFKPALGRSWSFVPSTRILLDVTEGAGTLGSSQRTVCLTKSPRQPTGLQEMIDIGTLGTEEQSPELPGKQT
